Source: US20040248821A1, “Composition for the treatment of lupus” (priority 2001, published 2004)
At least one structure is not confirmed: it was looked up by name or label, or the drawing left a doubt.

System: patients with Lupus (SLE)
Assay: Treatment of human Lupus patients with the inventive composition (case reports)
Format: in vivo
Details: flavonoid replacing Quercetin in the inventive formula, limited tests

## C[C@@H]1O[C@@H](OC[C@H]2O[C@@H](Oc3c(-c4ccc(O)c(O)c4)oc4cc(O)cc(O)c4c3=O)[C@H](O)[C@@H](O)[C@@H]2O)[C@H](O)[C@H](O)[C@H]1O [Rutin]
  Effectiveness of the flavonoid in the inventive formula (with Bromelain and Vitamin C): also effective
Listed as rutin
  Effectiveness of the flavonoid in the inventive formula (with Bromelain and Vitamin C): moderately effective
